The match of structure and compound is tentative.
Legend:
CDK4/Cyclin D1 = CDK4/Cyclin D1 (Homo sapiens, UniProt P11802); test: NanoBRET live-cell target engagement, NanoLuc-CDK4/Cyclin D1 in HEK-293; type: binding; settings: probe 0.5µM, normalised to 20µM unlabeled parent compound; n=1
CDK9/Cyclin K = CDK9/Cyclin K (Homo sapiens, UniProt P50750); test: NanoBRET live-cell target engagement, NanoLuc-CDK9/Cyclin K in HEK-293; type: binding
CDK15/Cyclin Y = CDK15/Cyclin Y (Homo sapiens, UniProt Q96Q40); test: NanoBRET live-cell target engagement, NanoLuc-CDK15/Cyclin Y in HEK-293; type: binding; settings: probe 0.5µM, normalised to 20µM unlabeled parent compound; n=1
CDK10/Cyclin L2 = CDK10/Cyclin L2 (Homo sapiens, UniProt Q15131); test: NanoBRET live-cell target engagement, CDK10-NanoLuc/Cyclin L2 in HEK-293; settings: probe 0.5µM, normalised to 20µM unlabeled parent compound; n=1
CDK2/Cyclin E1 = CDK2/Cyclin E1 (Homo sapiens, UniProt P24941); test: NanoBRET live-cell target engagement, CDK2-NanoLuc/Cyclin E1 in HEK-293; type: binding
[1] = target: CDK/NanoLuc fusions (CDK only samples) (Homo sapiens, UniProt Q00535); settings: CDK5
[2] = target: CDK/NanoLuc fusions (CDK only samples) (Homo sapiens, UniProt Q8IZL9); settings: CDK20
[3] = target: CDK/NanoLuc fusions (CDK only samples) (Homo sapiens, UniProt Q00526); settings: CDK3
[4] = target: CDK/NanoLuc fusions (CDK only samples) (Homo sapiens, UniProt Q14004); settings: CDK13
[5] = target: CDK/NanoLuc fusions (CDK only samples) (Homo sapiens, UniProt P24941); settings: CDK2
[6] = target: CDK/NanoLuc fusions (CDK only samples) (Homo sapiens, UniProt Q07002); settings: CDK18
[7] = target: CDK/NanoLuc fusions (CDK only samples) (Homo sapiens, UniProt Q00536); settings: CDK16
[8] = target: CDK/NanoLuc fusions (CDK only samples) (Homo sapiens, UniProt P06493); settings: CDK1
[9] = target: CDK/NanoLuc fusions (CDK only samples) (Homo sapiens, UniProt P50750); settings: CDK9
[10] = target: CDK/NanoLuc fusions (CDK only samples) (Homo sapiens, UniProt Q00537); settings: CDK17
CDK16/Cyclin Y = CDK16/Cyclin Y (Homo sapiens, UniProt Q00536); test: NanoBRET live-cell target engagement, CDK16-NanoLuc/Cyclin Y in HEK-293; type: binding
CDK17/Cyclin Y = CDK17/Cyclin Y (Homo sapiens, UniProt Q00537); test: NanoBRET live-cell target engagement, CDK17-NanoLuc/Cyclin Y in HEK-293; type: binding
CDK18/Cyclin Y = CDK18/Cyclin Y (Homo sapiens, UniProt Q07002); test: NanoBRET live-cell target engagement, CDK18-NanoLuc/Cyclin Y in HEK-293; type: binding
CDK1/Cyclin E1 = CDK1/Cyclin E1 (Homo sapiens, UniProt P06493); test: NanoBRET live-cell target engagement, CDK1-NanoLuc/Cyclin E1 in HEK-293; type: binding
CDK7 = CDK7 (Homo sapiens, UniProt P50613); test: NanoBRET live-cell target engagement, NanoLuc-CDK7 in HEK-293; type: binding; settings: probe 0.5µM, normalised to 20µM unlabeled parent compound; n=1
CDK12/Cyclin K = CDK12/Cyclin K (Homo sapiens, UniProt Q9NYV4); test: NanoBRET live-cell target engagement, CDK12-NanoLuc/Cyclin K in HEK-293; type: binding
CDK11A/Cyclin L2 = CDK11A/Cyclin L2 (Homo sapiens, UniProt Q9UQ88); test: NanoBRET live-cell target engagement, CDK11A-NanoLuc/Cyclin L2 in HEK-293; type: binding; settings: probe 0.5µM, normalised to 20µM unlabeled parent compound; n=1
CDK20/Cyclin H = CDK20/Cyclin H (Homo sapiens, UniProt Q8IZL9); test: NanoBRET live-cell target engagement, NanoLuc-CDK20/Cyclin H in HEK-293; type: binding
CDK5/CDK5R1 = CDK5/CDK5R1 (Homo sapiens, UniProt Q00535); test: NanoBRET live-cell target engagement, CDK5-NanoLuc/CDK5R1 in HEK-293; type: binding
CDK8/Cyclin C = CDK8/Cyclin C (Homo sapiens, UniProt P49336); test: NanoBRET live-cell target engagement, NanoLuc-CDK8/Cyclin C in HEK-293; type: binding; settings: probe 0.5µM, normalised to 20µM unlabeled parent compound; n=1
CDK11B/Cyclin L2 = CDK11B/Cyclin L2 (Homo sapiens, UniProt P21127); test: NanoBRET live-cell target engagement, CDK11B-NanoLuc/Cyclin L2 in HEK-293; type: binding; settings: probe 0.5µM, normalised to 20µM unlabeled parent compound; n=1
CDK14/Cyclin Y = CDK14/Cyclin Y (Homo sapiens, UniProt O94921); test: NanoBRET live-cell target engagement, CDK14-NanoLuc/Cyclin Y in HEK-293; type: binding; settings: probe 0.5µM, normalised to 20µM unlabeled parent compound; n=1
CDK6/Cyclin D1 = CDK6/Cyclin D1 (Homo sapiens, UniProt Q00534); test: NanoBRET live-cell target engagement, NanoLuc-CDK6/Cyclin D1 in HEK-293; type: binding; settings: probe 0.5µM, normalised to 20µM unlabeled parent compound; n=1
CDK13/Cyclin K = CDK13/Cyclin K (Homo sapiens, UniProt Q14004); test: NanoBRET live-cell target engagement, CDK13-NanoLuc/Cyclin K in HEK-293; type: binding
CDK19/Cyclin C = CDK19/Cyclin C (Homo sapiens, UniProt Q9BWU1); test: NanoBRET live-cell target engagement, NanoLuc-CDK19/Cyclin C in HEK-293; settings: probe 0.5µM, normalised to 20µM unlabeled parent compound; n=1
CDK3/Cyclin E1 = CDK3/Cyclin E1 (Homo sapiens, UniProt Q00526); test: NanoBRET live-cell target engagement, CDK3-NanoLuc/Cyclin E1 in HEK-293; type: binding
[11] = probe 0.5µM, normalised to 20µM unlabeled parent compound, n=1

The chains behind the UniProt entries cited, without tags or fusion partners. Residues count along the entry.
UniProt P50750, whole entry: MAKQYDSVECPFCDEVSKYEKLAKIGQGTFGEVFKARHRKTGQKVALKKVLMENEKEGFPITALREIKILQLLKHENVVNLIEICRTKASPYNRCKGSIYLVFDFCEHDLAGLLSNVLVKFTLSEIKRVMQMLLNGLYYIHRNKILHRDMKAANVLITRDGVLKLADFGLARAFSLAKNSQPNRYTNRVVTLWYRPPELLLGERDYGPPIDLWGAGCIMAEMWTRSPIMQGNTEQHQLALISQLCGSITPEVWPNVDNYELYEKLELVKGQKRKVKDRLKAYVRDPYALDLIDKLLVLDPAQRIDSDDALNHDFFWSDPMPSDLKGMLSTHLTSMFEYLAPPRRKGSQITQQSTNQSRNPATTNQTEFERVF
UniProt Q00535, whole entry: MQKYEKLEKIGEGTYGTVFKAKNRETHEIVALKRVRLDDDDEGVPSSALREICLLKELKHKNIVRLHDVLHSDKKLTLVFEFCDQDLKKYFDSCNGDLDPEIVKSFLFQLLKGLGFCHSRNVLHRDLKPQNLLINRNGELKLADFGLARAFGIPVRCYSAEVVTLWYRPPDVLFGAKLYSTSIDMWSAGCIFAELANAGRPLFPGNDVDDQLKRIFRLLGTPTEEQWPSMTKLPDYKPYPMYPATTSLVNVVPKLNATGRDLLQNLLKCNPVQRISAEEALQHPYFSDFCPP
UniProt Q8IZL9, whole entry: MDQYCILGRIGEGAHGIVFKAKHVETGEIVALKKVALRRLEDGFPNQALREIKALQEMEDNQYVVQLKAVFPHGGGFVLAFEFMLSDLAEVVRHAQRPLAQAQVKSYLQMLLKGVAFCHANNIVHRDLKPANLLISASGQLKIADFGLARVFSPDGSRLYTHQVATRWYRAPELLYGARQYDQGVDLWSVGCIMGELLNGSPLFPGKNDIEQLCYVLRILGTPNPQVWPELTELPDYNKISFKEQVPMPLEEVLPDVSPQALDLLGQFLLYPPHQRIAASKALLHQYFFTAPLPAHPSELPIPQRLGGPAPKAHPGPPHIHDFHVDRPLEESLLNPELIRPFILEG
UniProt Q00526, whole entry: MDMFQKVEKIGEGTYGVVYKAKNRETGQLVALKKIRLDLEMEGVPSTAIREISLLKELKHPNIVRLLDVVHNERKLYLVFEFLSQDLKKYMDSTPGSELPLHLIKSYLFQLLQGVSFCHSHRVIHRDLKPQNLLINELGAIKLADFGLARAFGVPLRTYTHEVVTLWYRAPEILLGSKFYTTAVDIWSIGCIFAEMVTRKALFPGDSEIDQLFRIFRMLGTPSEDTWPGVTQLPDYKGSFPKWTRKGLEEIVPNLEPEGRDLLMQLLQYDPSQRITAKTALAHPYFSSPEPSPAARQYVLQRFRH
UniProt Q14004, 1-1452 isoform 2: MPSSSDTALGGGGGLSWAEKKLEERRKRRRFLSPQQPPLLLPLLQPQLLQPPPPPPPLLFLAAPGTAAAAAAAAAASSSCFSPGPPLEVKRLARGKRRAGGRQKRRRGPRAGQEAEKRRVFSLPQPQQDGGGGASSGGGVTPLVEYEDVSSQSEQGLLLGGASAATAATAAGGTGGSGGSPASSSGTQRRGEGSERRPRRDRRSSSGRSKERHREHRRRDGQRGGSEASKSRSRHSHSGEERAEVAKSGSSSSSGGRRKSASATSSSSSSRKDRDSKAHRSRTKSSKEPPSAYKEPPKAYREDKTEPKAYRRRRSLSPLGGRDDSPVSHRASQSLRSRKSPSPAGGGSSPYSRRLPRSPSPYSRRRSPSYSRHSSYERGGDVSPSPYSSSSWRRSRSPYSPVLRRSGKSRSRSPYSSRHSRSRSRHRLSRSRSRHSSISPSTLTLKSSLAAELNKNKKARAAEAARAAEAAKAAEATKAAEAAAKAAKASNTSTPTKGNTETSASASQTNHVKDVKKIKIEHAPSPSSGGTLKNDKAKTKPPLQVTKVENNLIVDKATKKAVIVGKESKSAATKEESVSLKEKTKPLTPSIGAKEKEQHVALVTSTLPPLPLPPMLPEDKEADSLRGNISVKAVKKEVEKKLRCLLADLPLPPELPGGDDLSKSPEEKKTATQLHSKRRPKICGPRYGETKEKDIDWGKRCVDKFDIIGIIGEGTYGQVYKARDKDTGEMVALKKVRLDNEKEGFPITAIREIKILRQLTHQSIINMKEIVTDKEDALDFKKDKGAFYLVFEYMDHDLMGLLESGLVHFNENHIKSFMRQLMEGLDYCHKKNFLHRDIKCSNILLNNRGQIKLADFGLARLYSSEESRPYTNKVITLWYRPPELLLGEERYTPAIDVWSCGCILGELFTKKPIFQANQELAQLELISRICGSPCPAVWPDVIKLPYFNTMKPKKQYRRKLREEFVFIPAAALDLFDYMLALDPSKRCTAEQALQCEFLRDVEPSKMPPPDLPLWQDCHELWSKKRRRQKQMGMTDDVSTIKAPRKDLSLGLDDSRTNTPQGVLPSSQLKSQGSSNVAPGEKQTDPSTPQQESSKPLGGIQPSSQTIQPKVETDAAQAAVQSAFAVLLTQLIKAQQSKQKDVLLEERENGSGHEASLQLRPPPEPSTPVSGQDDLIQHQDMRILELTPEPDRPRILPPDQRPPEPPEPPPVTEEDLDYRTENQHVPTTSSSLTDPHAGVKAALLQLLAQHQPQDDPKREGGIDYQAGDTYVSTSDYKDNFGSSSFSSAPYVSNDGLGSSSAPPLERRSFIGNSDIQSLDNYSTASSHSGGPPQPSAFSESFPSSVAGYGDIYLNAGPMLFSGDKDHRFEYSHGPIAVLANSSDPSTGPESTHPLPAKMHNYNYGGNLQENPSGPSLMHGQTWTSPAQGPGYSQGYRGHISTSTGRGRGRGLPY
UniProt Q14004, whole entry: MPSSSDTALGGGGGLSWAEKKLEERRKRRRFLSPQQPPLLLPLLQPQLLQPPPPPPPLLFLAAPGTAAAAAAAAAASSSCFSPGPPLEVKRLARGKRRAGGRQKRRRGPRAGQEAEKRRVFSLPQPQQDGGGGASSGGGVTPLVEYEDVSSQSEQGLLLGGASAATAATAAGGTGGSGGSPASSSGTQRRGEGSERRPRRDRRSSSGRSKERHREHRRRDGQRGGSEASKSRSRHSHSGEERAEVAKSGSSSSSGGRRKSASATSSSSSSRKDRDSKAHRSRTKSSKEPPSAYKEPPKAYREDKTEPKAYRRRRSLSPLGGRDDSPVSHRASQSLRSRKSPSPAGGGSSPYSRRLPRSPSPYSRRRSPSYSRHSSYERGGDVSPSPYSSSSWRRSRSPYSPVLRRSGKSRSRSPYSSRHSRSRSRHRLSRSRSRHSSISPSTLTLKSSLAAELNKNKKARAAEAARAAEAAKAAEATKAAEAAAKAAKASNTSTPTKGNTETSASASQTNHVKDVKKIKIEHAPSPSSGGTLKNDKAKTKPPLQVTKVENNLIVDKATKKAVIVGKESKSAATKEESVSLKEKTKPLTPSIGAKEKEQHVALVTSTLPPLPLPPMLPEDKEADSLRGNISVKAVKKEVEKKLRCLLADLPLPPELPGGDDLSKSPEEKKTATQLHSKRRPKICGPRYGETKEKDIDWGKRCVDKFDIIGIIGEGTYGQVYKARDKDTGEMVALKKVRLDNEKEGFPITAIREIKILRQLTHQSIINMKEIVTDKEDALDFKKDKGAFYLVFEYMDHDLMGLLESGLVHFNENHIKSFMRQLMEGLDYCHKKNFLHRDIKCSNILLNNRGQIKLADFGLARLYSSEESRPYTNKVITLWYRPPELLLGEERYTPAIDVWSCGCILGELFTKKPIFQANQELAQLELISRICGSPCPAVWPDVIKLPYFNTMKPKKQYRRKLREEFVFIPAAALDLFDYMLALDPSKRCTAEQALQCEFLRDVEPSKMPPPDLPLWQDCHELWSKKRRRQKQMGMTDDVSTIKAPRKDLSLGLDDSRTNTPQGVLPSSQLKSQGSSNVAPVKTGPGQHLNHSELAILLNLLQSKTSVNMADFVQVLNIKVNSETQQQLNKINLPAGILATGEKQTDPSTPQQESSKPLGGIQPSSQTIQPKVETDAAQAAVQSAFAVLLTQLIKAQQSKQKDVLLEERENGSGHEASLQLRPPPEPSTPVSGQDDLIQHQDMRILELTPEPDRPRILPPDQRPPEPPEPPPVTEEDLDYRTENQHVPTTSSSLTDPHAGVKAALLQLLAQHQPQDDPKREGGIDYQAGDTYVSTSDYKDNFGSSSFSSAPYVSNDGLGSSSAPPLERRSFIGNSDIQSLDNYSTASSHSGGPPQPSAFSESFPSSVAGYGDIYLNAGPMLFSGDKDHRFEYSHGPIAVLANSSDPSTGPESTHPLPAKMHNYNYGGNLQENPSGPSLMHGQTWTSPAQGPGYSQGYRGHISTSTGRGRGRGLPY
UniProt Q07002, whole entry: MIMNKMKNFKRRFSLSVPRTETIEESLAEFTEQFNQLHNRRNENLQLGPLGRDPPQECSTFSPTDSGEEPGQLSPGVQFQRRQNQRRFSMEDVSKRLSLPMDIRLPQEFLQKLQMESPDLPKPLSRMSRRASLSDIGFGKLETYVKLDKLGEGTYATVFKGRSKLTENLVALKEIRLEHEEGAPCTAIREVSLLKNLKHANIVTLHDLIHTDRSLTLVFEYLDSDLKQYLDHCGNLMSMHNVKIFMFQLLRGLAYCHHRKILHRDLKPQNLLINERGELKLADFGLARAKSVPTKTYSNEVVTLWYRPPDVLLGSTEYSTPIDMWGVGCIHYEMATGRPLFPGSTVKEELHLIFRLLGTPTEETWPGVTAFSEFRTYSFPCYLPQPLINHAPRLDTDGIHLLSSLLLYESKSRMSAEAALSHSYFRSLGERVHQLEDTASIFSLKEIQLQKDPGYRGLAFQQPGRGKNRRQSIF
UniProt Q00536, whole entry: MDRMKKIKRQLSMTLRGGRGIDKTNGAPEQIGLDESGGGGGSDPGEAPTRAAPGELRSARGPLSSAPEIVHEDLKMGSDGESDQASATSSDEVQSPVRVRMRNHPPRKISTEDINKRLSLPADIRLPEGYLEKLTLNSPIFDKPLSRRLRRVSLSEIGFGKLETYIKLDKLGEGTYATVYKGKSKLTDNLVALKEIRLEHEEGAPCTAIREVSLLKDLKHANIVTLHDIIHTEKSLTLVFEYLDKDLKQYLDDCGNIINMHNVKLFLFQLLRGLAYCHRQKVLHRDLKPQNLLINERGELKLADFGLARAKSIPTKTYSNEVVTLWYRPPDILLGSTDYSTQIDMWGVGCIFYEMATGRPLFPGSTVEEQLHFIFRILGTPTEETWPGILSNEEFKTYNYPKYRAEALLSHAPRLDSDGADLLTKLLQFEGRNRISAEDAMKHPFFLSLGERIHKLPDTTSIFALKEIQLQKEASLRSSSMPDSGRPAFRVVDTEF
UniProt P06493, whole entry: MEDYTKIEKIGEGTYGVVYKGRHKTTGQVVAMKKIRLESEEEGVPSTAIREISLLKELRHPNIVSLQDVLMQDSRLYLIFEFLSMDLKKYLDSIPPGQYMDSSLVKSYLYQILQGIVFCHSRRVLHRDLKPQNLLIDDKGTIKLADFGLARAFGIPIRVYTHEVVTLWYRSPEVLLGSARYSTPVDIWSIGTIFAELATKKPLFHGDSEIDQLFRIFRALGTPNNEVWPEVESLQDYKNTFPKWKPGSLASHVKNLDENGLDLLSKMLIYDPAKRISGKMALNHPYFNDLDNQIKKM
UniProt Q00537, whole entry: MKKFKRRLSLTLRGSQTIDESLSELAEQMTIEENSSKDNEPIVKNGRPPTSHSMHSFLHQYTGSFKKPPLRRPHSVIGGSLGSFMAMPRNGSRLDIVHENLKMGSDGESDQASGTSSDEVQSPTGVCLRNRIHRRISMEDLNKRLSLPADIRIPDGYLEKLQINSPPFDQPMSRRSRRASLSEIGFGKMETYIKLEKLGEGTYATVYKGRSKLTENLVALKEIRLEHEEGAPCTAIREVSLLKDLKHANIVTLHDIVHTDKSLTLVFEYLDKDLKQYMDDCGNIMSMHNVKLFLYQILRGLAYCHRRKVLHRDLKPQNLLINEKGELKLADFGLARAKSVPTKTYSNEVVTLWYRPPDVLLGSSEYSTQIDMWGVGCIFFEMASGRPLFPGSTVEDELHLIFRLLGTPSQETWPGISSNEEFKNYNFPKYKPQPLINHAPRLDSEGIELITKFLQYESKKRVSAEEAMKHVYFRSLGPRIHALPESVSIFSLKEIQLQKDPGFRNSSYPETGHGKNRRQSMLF
UniProt P49336, whole entry: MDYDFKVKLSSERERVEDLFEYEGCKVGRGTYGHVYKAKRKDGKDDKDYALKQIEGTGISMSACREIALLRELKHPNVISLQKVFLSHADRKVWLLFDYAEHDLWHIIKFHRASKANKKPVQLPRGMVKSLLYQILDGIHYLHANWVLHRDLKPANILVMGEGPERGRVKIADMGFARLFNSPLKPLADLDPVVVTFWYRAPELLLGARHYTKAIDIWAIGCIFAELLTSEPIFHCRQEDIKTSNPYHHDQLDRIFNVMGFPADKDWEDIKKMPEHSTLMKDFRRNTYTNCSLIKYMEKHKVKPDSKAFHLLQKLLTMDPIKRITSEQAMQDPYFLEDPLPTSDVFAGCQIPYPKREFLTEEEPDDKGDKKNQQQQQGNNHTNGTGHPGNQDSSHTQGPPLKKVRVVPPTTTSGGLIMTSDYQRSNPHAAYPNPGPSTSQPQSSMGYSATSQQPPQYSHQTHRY

NC(=O)c1ccccc1Nc1nc(Nc2cccc(N3CCN(C(=O)CCOCCOCCOCCOCCNC(=O)CCc4ccc5n4[B-](F)(F)[N+]4=C(c6ccc[nH]6)C=CC4=C5)CC3)c2)ncc1Cl
Relative BRET Signal, CDK4 + Cyclin D1 (CDK4/Cyclin D1): 1.37 | Relative BRET signal (CDK9/Cyclin K; CDK9 + Cyclin K): 3.53 | Relative BRET Signal, CDK9 + Cyclin K (CDK9/Cyclin K; [11]): 3.53 | Relative BRET Signal, CDK15 + Cyclin Y (CDK15/Cyclin Y): 1.74 | Relative BRET Signal, CDK10 + Cyclin L2 (CDK10/Cyclin L2): 1.43 | Relative BRET signal (CDK2/Cyclin E1; CDK2 + Cyclin E1): 8.83 | Relative BRET Signal, CDK2 + Cyclin E1 (CDK2/Cyclin E1; [11]): 8.83 | Relative BRET signal [1]: 5.09 | Relative BRET signal [2]: 2.48 | Relative BRET signal [3]: 3.12 | Relative BRET signal [4]: 1.22 | Relative BRET signal [5]: 8.08 | Relative BRET signal [6]: 2.58 | Relative BRET signal [7]: 3.17 | Relative BRET signal [8]: 1.83 | Relative BRET signal [9]: 1.62 | Relative BRET signal [10]: 2.57 | Relative BRET signal (CDK16/Cyclin Y; CDK16 + Cyclin Y): 2.21 | Relative BRET Signal, CDK16 + Cyclin Y (CDK16/Cyclin Y; [11]): 2.21 | Relative BRET signal (CDK17/Cyclin Y; CDK17 + Cyclin Y): 2.21 | Relative BRET Signal, CDK17 + Cyclin Y (CDK17/Cyclin Y; [11]): 2.21 | Relative BRET signal (CDK18/Cyclin Y; CDK18 + Cyclin Y): 3.25 | Relative BRET Signal, CDK18 + Cyclin Y (CDK18/Cyclin Y; [11]): 3.25 | Relative BRET signal (CDK1/Cyclin E1; CDK1 + Cyclin E1): 3.10 | Relative BRET Signal, CDK1 + Cyclin E1 (CDK1/Cyclin E1; [11]): 3.1 | Relative BRET Signal, CDK7 (CDK7): 1.33 | Relative BRET signal (CDK12/Cyclin K; CDK12 + Cyclin K): 1.39 | Relative BRET Signal, CDK12 + Cyclin K (CDK12/Cyclin K; [11]): 1.39 | Relative BRET Signal, CDK11A + Cyclin L2 (CDK11A/Cyclin L2): 1.06 | Relative BRET signal (CDK20/Cyclin H; CDK20 + Cyclin H): 2.93 | Relative BRET Signal, CDK20 + Cyclin H (CDK20/Cyclin H; [11]): 2.93 | Probe EC50, NanoLuc-CDK20/ Cyclin E1 (CDK20/Cyclin H; probe titration up to 1µM, HEK-293, n=1): undefined | Relative BRET signal (CDK5/CDK5R1; CDK5 + CDK5R1): 5.55 | Relative BRET Signal, CDK5 + CDK5R1 (CDK5/CDK5R1; [11]): 5.55 | Relative BRET Signal, CDK8 + Cyclin C (CDK8/Cyclin C): 1.08 | Relative BRET Signal, CDK11B + Cyclin L2 (CDK11B/Cyclin L2): 1.03 | Relative BRET Signal, CDK14 + Cyclin Y (CDK14/Cyclin Y): 1.26 | Relative BRET Signal, CDK6 + Cyclin D1 (CDK6/Cyclin D1): 1.46 | Relative BRET signal (CDK13/Cyclin K; CDK13 + Cyclin K): 1.29 | Relative BRET Signal, CDK13 + Cyclin K (CDK13/Cyclin K; [11]): 1.29 | Relative BRET Signal, CDK19 + Cyclin C (CDK19/Cyclin C): 1.02 | Relative BRET signal (CDK3/Cyclin E1; CDK3 + Cyclin E1): 9.16 | Relative BRET Signal, CDK3 + Cyclin E1 (CDK3/Cyclin E1; [11]): 9.16 | Kd (CDK3/Cyclin E1; read-out: Kd,apparent of probe (linearized Cheng-Prusoff), CDK3/Cyclin E1, dinaciclib as competitor): 770 nM

Source: paper PMC7265341, “Quantifying CDK inhibitor selectivity in live cells” (Nature Communications, 2020)
